# Measured values: publication PMC4231742
# Protein sequences, listed by entry. Tags and fused reporters are not part of them.
# UniProt P01100, whole entry: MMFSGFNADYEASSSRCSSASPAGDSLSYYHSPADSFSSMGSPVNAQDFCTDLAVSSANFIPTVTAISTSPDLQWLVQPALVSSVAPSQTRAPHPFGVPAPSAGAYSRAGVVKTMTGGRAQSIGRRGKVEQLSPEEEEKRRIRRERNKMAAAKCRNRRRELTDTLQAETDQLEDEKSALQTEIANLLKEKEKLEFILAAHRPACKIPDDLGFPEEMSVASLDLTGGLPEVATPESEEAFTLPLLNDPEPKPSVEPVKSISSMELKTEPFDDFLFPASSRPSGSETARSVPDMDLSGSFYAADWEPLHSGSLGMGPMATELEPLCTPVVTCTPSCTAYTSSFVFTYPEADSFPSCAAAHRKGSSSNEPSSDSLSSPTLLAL
# UniProt P05412, whole entry: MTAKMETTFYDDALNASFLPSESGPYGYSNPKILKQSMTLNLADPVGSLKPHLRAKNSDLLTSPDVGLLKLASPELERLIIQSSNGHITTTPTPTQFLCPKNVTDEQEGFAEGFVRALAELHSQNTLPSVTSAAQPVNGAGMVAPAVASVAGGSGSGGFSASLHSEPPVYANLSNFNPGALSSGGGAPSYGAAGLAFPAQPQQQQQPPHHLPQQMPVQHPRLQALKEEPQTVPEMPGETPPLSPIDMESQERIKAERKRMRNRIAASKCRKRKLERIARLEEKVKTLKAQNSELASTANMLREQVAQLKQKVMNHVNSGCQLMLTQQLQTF
# Legend:
# c-Fos (AP-1) = c-Fos (AP-1) (UniProt P01100); experiment: EMSA antibody supershift; conditions: TPA-treated HepG2 nuclear extract; LightShift Chemiluminescent EMSA kit; 3'-biotin probes with nuclear extract of TPA-treated HepG2; pH and temperature not stated; protein in an extract; label: 3' biotin
# c-Jun (AP-1) = c-Jun (AP-1) (UniProt P05412); experiment: EMSA antibody supershift; conditions: TPA-treated HepG2 nuclear extract; LightShift Chemiluminescent EMSA kit; 3'-biotin probes with nuclear extract of TPA-treated HepG2; pH and temperature not stated; protein in an extract; label: 3' biotin
Sequence,binding result (c-Fos (AP-1)),binding result (c-Jun (AP-1))
TGTATGTGTGTCACATTTGAAGTCACCAGTT (double strand) [Site B],binds,binds
TCCCACTGACTCATTGGAAGAGCTGTGTGACTCAGTGTAT (double strand) [Site A],binds,binds

# Construct, isoform or probe ends are uncertain for at least one entry. At least one result comes from cells or an extract, where the contact may be indirect.
